Source: PubChem BioAssay AID485314 (National Center for Advancing Translational Sciences (NCATS), 2010)
In all, about 340,000 compounds went through this assay and about 4,500 (1.3%) were called active. The inconclusive results got no clear call from the source; some entries with a clear call stand among them for comparison. Calls come from the whole dose curve; as a rule, active = well fitted inhibition curve with a large enough effect; inconclusive = small, poorly fitted or top-dose-only effect, or another doubt; inactive = no such curve, though single readings can be large or run the other way. Potencies beside an inconclusive call are fits to weak or partial responses and may not hold up.

Target: DNA polymerase beta (Homo sapiens) (UniProt P06746)
Assay: qHTS Assay for Inhibitors of DNA Polymerase Beta
Conditions: Pol beta primer extension/strand displacement, fluorescence kinetic; activity change, negative = inhibition: at 114 µM (top of the series)
How it was run: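 Curves were derived by four-parameter Hill fits of normalized qHTS data. The kinetic fluorescent primer-extension read was taken at 0 and 10 min after 50 nM substrate, following a 15 min room-temperature preincubation of 10 nM enzyme with compounds.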
% is set by controls: 0 for no effect and ±100 for the full control effect; potency is the fitted concentration of half-maximal effect.

Activity change, negative = inhibition, inactive:
CCCOc1ccc(C(=O)CCN2CCN(C(=O)OCC)CC2)cc1 -13.9%
COc1ccc(/C(C)=N/OCC(=O)N=Nc2c(O)[nH]c3ccccc23)cc1 17.6%
O=C1NC(C(=O)O)=CC(c2ccc([N+](=O)[O-])cc2)N1 (stereo not drawn) 25.3%
CCN(C(=O)CSc1nc2ccccc2n1CC(=O)NCc1ccc(OC)cc1)c1ccccc1 0.0786%
CCOC(=O)c1cc(-c2ccccc2)n(CCC(=O)NC2CCCCC2)c1C 0.612%
COCCNC(=O)c1cc2sc3ccccc3c2s1 0.159%
O=C(Nc1ccc(F)cc1)c1cccn1-c1nnc(N2CCCCC2)s1 -1.85%
Cc1cc(=O)c2cc(C(=O)Nc3ccccc3)ccc2[nH]1 3.42%
N=C1/C(=C\c2ccc(OC(=O)c3ccc(F)cc3)cc2)C(=O)N=C2SC(N3CCOCC3)=NN12 14.1%
Cc1ccc(C)c(-c2nc(Cn3c(=O)cc(-c4ccccc4)c4c(C)nn(C)c43)c(C)o2)c1 -19.6%
COc1cccc(C(=O)Oc2ccc(/C=N/Nc3ccc(C(=O)O)cc3)cc2OC)c1 28.1%
CCOCCCNC(=O)NC(CCC(C)C)c1c(-n2cccc2)sc2c1CCN(C)C2 (stereo not drawn) -24%
COc1ccc(C(=O)NCC(c2cccnc2)N2CCc3ccccc3C2)cc1OC (stereo not drawn) -0.0857%
Cc1ccn(-c2cc(O)c(-n3ccc(C)n3)cc2O)n1 17%

Activity change, negative = inhibition, inconclusive:
CCC(CC)NC(=O)c1ccc(NS(=O)(=O)c2ccc3[nH]c(=O)[nH]c3c2)cc1 -46.3% [inhibitor]
Cc1ccc(-c2csc(/C(C#N)=C/c3ccccc3Cl)n2)cc1 -30.8% [inhibitor]
O=C(Nc1ccc(NC(=O)c2ccco2)c(Cl)c1)c1ccc2c(c1)OCCO2 -63% [inhibitor]
COc1ccc(OCC(=O)Nc2ccc3c(c2)nc(CCn2ccccc2=O)n3C)cc1 -78.8% [inhibitor]

Potency, inconclusive:
O=C(NNc1ccc(Cl)nn1)c1ccc(Cl)cc1 89.1 µM [inhibitor, single point]
O=C(NC1CC1)c1c[nH]c2ccc(S(=O)(=O)Nc3cccc(C(F)(F)F)c3)cc2c1=O 35.5 µM [inhibitor, partial curve]
COc1ccc(CN2CCCN(C)CC2)c(OC)c1C 1 µM [inhibitor, full curve, poor fit]
O=C(O)CSCc1ccc(C(=O)O)o1 20 µM [inhibitor, full curve, poor fit]
Cc1ccccc1OCc1nc(-c2ccc(-n3cccc3)cc2)no1 31.6 µM [inhibitor, single point]
Cc1[nH]n(-c2ccccc2)c(=O)c1N=Nc1ccccc1O 79.4 µM [inhibitor, single point]
O=C(O)c1cn(-c2ccc(N3CCCC3)c(F)c2)c2c(F)c(F)c(F)cc2c1=O 31.6 µM [inhibitor, full curve]
O=C(COC(=O)CCC1CCCC1)NCc1ccc(Cl)cc1 39.8 µM [inhibitor, single point]
O=C(c1ccco1)N1C(=O)c2cccc3cccc1c23 25.1 µM [inhibitor, full curve]
COc1cc2[nH]cc(C(=O)NCc3ccccc3)c(=O)c2cc1OC 3.98 µM [inhibitor, single point]
CCC(C)(C)NC(=O)C(c1ccc(OC)cc1)N(C(=O)CCC(=O)Nc1cc(C)on1)c1cccc(F)c1 (stereo not drawn) 89.1 µM [inhibitor, single point]
Cc1noc(C)c1S(=O)(=O)Nc1ccc(C(=O)Nc2ccc(Br)cc2)cc1 2.51 µM [inhibitor, single point]
Cc1nc(-c2ccc(O)c(O)c2)cs1 56.2 µM [inhibitor, partial curve, poor fit]
Cc1ccc(-c2noc(-c3ccc(N4CCCCC4)c([N+](=O)[O-])c3)n2)cc1 89.1 µM [inhibitor, single point]
COCCNC(=O)C(C)OC(=O)c1cc2occc2n1C (stereo not drawn) 1.58 µM [inhibitor, full curve]
CCOC(=O)c1cc(-c2ccccc2)n(CCC(=O)NC(C)CC)c1C (stereo not drawn) 89.1 µM [inhibitor, single point]
COc1ccc(/C=C/C(=O)C2CC2)cc1COc1c(C)cccc1C 79.4 µM [inhibitor, single point]
COc1ccc(CNc2nc(=S)[nH]c3cc(OC)c(OC)cc23)cc1 28.2 µM [inhibitor, single point]
Clc1ccc(SCCn2cncn2)cc1 1 µM [inhibitor, full curve, poor fit]
N#C/C(=C/c1ccc(N2CCOCC2)o1)c1nc2ccccc2[nH]1 28.2 µM [inhibitor, single point]
Cc1cc(/C=C(\C#N)C(=O)NCc2ccco2)c(C)n1-c1ccc(C(=O)O)cc1 50.1 µM [inhibitor, single point]
Cc1ccc(-n2c(C)nn(CC#N)c2=O)cc1 100 µM [inhibitor, single point]
Cc1cc(C)c(-c2csc(NC(=O)c3cc([N+](=O)[O-])ccc3N3CCOCC3)n2)c(C)c1 35.5 µM [inhibitor, full curve, poor fit]
Cc1nn(C)cc1S(=O)(=O)N1CCN(c2ccccc2F)CC1 3.98 µM [inhibitor, single point]
Cc1cc(Cl)ccc1OCC(=O)N/N=C1\CCCc2ccccc21 2.24 µM [inhibitor, full curve, poor fit]
Cc1ccc2cccc(NC(=O)c3ccc(-c4ccc(Br)cc4)o3)c2n1 4.47 µM [inhibitor, full curve, poor fit]
Cc1c(C)c(C)c(C(=O)C2CCN(c3ccc([N+](=O)[O-])cn3)CC2)c(C)c1C 89.1 µM [inhibitor, single point]
COc1ccc(-c2cc3ccccc3oc2=O)cc1NC(=O)c1ccc([N+](=O)[O-])o1 56.2 µM [inhibitor, partial curve]
CCOc1ccc(NC(=O)Cn2cc(C(=O)c3ccc(CC)cc3)c(=O)c3cc(C)ccc32)cc1 1.78 µM [inhibitor, full curve, poor fit]
Cc1cc(OCC(=O)Nc2ccc(CN3CCOCC3)cc2)ccc1Cl 25.1 µM [inhibitor, single point]
S=C(NCC1CCCO1)N1CCN(Cc2ccccc2)CC1 (stereo not drawn) 4.47 µM [inhibitor, single point]
CC(c1ccc(F)cc1)n1c(Cn2ncc3ccccc3c2=O)n[nH]c1=S (stereo not drawn) 89.1 µM [inhibitor, single point]
COc1ccc(OCC(=O)Nc2cccc(-c3nc4ccccc4o3)c2)cc1 7.08 µM [inhibitor, full curve]
N#Cc1cc(C(=O)c2cc(Br)ccc2O)cn(C2CC2)c1=O 20 µM [inhibitor, single point]
NC(=S)N/N=C/C=C/c1ccccc1 25.1 µM [inhibitor, single point]
CCOc1cc(C(=O)O)cc(Cl)c1OCC#N 89.1 µM [inhibitor, partial curve, poor fit]
O=C(O)c1c(N2CCCCC2)ccc([N+](=O)[O-])c1N1CCCCC1 100 µM [inhibitor, single point]
Cc1cc(C)c2cc(C(=O)N3CCC(C(=O)c4ccc(F)cc4)CC3)[nH]c2c1 44.7 µM [inhibitor, partial curve]
CC(/C=N/NC(=O)c1sc(N)nc1C)=C\c1ccccc1 39.8 µM [inhibitor, single point]
COC(=O)CCCC1=CC2=CC(=O)C(C)(OC(=O)c3cccs3)C(=O)C2=CN1Cc1ccccc1 (stereo not drawn) 50.1 µM [inhibitor, partial curve]
Cc1cccc(N2CCN(S(=O)(=O)c3ccc4c(c3)CCCN4C(=O)C3CCC3)CC2C)c1 (stereo not drawn) 0.891 µM [inhibitor, full curve, poor fit]
COc1cc2c(=O)c(S(=O)(=O)c3ccc(F)cc3)cn(Cc3ccc(Cl)cc3)c2cc1OC 39.8 µM [inhibitor, single point]

3 compounds drawn at random from those above, as already listed:
Potency, inconclusive:
COc1ccc(CNc2nc(=S)[nH]c3cc(OC)c(OC)cc23)cc1 28.2 µM [inhibitor, single point]
Cc1cc(C)c(-c2csc(NC(=O)c3cc([N+](=O)[O-])ccc3N3CCOCC3)n2)c(C)c1 35.5 µM [inhibitor, full curve, poor fit]
Cc1ccccc1OCc1nc(-c2ccc(-n3cccc3)cc2)no1 31.6 µM [inhibitor, single point]

Following part:

Potency, active:
O=C(O)CCNc1ccc(NCCC(=O)O)c2c1C(=O)c1ccccc1C2=O 12.6 µM
Oc1ccc(/C=N/N2CCCCC2)c(O)c1O 35.5 µM
O=C(O)CCCNc1cc(N2CCC3(CC2)OCCO3)c2noc3c2c1C(=O)c1ccccc1-3 11.2 µM
O=C(Nc1cccc(S(=O)(=O)NC2=NCCCCC2)c1)C1COc2ccccc2O1 (stereo not drawn) 12.6 µM
CC(=O)OCC1=C(C(=O)O)N2C(=O)C(NC(=O)c3ccc(COc4c(C)cccc4Cl)o3)C2SC1 (stereo not drawn) 12.6 µM
COc1cccc(NC(=O)CN(C)C(=O)CCc2nc3sc4c(c3c(=O)[nH]2)CCCC4)c1 35.5 µM
O=C(O)c1cc([N+](=O)[O-])cc2c1C=Cc1ccccc1O2 56.2 µM
CCCCn1c(=O)[nH]c(=O)c2c1nc(Cn1ncc(Cl)c(Cl)c1=O)n2CCC 50.1 µM
